The record followed here is PMC9177963.

Amino acid sequences for entries named in this document (tags omitted).
UniProt Q02248: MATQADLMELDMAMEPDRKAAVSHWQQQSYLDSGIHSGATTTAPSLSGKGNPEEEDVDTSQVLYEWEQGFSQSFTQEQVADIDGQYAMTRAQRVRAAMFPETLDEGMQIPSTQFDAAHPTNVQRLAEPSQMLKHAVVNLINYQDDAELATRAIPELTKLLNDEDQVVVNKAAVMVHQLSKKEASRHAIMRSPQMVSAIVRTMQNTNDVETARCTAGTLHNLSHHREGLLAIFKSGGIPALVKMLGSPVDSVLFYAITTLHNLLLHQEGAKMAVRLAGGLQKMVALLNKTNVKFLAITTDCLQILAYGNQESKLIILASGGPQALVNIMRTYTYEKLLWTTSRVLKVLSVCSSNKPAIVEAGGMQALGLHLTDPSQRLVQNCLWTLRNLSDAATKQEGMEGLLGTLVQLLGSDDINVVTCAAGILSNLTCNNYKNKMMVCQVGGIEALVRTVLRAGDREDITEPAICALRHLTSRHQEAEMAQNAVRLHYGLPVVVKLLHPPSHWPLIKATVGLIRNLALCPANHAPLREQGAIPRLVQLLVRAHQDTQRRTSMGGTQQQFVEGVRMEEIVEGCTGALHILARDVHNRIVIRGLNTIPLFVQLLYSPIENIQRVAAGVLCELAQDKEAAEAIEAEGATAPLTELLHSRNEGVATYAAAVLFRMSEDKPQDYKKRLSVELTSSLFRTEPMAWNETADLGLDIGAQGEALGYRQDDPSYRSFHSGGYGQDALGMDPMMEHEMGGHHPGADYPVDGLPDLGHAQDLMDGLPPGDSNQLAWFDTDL
UniProt Q9Z1E3: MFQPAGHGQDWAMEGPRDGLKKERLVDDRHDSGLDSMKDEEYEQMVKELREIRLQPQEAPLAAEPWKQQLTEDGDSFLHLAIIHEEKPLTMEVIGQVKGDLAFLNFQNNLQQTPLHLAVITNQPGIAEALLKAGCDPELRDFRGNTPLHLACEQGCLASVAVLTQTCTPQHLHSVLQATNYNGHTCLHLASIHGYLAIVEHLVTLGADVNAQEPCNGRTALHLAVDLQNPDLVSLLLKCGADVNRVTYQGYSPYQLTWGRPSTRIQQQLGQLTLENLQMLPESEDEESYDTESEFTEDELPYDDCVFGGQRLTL
UniProt O88522: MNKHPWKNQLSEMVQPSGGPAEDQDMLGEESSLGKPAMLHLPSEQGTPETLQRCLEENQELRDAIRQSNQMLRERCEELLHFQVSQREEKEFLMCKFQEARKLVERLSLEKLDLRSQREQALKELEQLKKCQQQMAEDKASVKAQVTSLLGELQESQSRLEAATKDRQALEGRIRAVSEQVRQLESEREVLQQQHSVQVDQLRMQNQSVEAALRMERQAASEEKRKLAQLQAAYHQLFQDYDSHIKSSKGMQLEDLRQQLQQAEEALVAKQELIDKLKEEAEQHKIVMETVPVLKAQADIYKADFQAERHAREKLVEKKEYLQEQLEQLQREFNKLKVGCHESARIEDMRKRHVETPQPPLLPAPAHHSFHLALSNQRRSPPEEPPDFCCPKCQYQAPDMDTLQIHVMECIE

In one experiment the target is T1, USP26 in 293 T cells (UniProt Q99MX1).
T1 sequence: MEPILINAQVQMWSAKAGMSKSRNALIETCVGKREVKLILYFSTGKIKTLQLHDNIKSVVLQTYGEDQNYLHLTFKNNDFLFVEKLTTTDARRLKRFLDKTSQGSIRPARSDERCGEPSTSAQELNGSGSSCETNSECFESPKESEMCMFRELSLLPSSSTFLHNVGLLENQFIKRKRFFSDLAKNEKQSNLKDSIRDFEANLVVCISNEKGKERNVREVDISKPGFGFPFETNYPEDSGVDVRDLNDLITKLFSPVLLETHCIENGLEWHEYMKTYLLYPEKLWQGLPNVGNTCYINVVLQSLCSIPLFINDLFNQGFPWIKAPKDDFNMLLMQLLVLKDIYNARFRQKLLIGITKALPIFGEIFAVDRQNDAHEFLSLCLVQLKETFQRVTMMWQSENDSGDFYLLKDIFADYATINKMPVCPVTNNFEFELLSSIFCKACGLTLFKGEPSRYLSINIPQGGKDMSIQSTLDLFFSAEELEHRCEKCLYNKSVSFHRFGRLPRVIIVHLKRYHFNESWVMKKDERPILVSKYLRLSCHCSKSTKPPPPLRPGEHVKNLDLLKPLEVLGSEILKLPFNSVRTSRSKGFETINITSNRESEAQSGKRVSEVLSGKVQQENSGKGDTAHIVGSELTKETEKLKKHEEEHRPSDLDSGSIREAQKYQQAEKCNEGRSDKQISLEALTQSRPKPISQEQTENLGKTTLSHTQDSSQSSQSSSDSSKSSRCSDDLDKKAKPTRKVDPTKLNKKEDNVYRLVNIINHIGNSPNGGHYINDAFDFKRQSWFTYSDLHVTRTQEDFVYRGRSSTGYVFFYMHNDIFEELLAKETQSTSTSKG
The experiment is described as follows: co-IP; 293 T cells ectopically expressing a Flag-tagged protein; whole-cell extracts, USP26 immunoprecipitates and the reverse (anti-Flag) immunoprecipitates, protein A&G beads, western blot.

Experiment [1] concerns the target T2, USP26 (ubiquitin-specific protease 26) (mouse (endogenous in mouse MSCs and BMMs)) (UniProt Q99MX1).
T2 sequence: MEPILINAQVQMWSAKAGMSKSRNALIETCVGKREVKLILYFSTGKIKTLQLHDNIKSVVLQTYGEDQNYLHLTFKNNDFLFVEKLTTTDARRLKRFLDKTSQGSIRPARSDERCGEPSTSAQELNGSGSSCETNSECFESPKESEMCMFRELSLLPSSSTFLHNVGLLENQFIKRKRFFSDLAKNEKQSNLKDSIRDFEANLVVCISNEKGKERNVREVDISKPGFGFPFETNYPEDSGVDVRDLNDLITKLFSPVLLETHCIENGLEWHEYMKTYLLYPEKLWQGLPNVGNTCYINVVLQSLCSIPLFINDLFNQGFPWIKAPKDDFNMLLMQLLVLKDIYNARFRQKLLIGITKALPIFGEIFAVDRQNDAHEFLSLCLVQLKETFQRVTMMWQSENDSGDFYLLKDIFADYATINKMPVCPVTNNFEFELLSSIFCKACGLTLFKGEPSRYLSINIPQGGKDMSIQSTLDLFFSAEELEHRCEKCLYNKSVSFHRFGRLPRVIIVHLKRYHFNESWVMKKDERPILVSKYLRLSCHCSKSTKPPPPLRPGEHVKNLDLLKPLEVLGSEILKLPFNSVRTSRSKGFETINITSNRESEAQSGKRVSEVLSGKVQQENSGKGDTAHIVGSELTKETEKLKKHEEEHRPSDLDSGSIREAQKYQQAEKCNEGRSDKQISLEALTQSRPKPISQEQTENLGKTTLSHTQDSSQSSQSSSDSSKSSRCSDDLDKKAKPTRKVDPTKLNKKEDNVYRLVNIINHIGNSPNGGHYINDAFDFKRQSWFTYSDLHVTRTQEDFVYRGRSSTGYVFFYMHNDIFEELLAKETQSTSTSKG
The experiment is described as follows: co-IP; endogenous proteins in mouse BMM whole-cell extracts; USP26 immunoprecipitates immunoblotted with antibodies against IKKα, IKKβ, IKKγ and IκBα.

Experiment [2] concerns the target T2, USP26 (ubiquitin-specific protease 26) (mouse (endogenous in mouse MSCs and BMMs)). The experiment can be described thus: co-IP; endogenous proteins in mouse MSC whole-cell extracts; anti-USP26 antibody against control IgG, overnight at 4 °C, protein A&G beads, western blot.
The next experiment deals with Flag-tagged β-catenin (UniProt Q02248). The experiment can be described thus: co-IP; 293 T cells ectopically expressing a Flag-tagged protein; whole-cell extracts, USP26 immunoprecipitates and the reverse (anti-Flag) immunoprecipitates, protein A&G beads, western blot.
The target in the next experiment is Flag-tagged IκBα (UniProt Q9Z1E3). The experiment is described as above.

Results are given in words; binding and its absence hold for the method and conditions named. Binding seen in cells or lysates may run through a third protein. Some entries that bind do so weakly or less than the wild type.

Take “Flag-tagged IκBα (from UniProt Q9Z1E3 1-314)”: the binding result with USP26 in 293 T cells is on record as “binds”.
Still for that read-out and setting: for “Flag-tagged β-catenin (from UniProt Q02248 1-781)” the value was “binds”.
IKKγ (from UniProt O88522 1-412): the binding result in experiment [1] is recorded as “no binding”.
On the same count and under the same terms, for “IκBα (inhibitor of NF-κBα) (from UniProt Q9Z1E3 1-314)” the value was “binds”.
Turning to β-catenin (from UniProt Q02248 1-781), the binding result in experiment [2] is “binds”.

B1: IKKα (enzyme, UniProt Q60680 1-745)
chain: MERPPGLRPGAGGPWEMRERLGTGGFGNVSLYQHRELDLKIAIKSCRLELSSKNRERWCHEIQIMKKLDHANVVKACDVPEELNFLINDVPLLAMEYCSGGDLRKLLNKPENCCGLKESQILSLLSDIGSGIRYLHENKIIHRDLKPENIVLQDVGGKTIHKIIDLGYAKDVDQGSLCTSFVGTLQYLAPELFENKPYTATVDYWSFGTMVFECIAGYRPFLHHLQPFTWHEKIKKKDPKCIFACEEMTGEVRFSSHLPQPNSLCSLIVEPMESWLQLMLNWDPQQRGGPIDLTLKQPRCFALMDHILNLKIVHILNMTSAKIISFLLPCDESLHSLQSRIERETGINTGSQELLSETGISLDPRKPASQCVLDGVRGCDSYMVYLFDKSKTVYEGPFASRSLSDCVNYIVQDSKIQLPIIQLRKVWAEAVHYVSGLKEDYSRLFQGQRAAMLSLLRYNANLTKMKNTLISASQQLKAKLEFFRKSIQLDLERYSEQMTYGISSEKMLKAWKEMEEKAIHYSEVGVIGYLEDQIMSLHTEIMELQKSPYGRRQGDLMESLEQRAIDLYKQLKHRPPDHLYSDSTEMVKIIVHTVQSQDRVLKELFGHLSKLLGCKQKIIDLLPKVEVALSNIKEADNTVMFMQGKRQKEIWHLLKIACTQSSARSLVGSSLEGTVTPPVSAWLPPTLADREHPLTCVVTPQDGETLAQMIEENLNCLGHLSTIIREANEDQSSSLMSLDWSWLAE
As for B1, the binding result in experiment [1] is “no binding”.

B2: USP26 in 293 T cells (enzyme, UniProt Q99MX1 1-835)
chain: MEPILINAQVQMWSAKAGMSKSRNALIETCVGKREVKLILYFSTGKIKTLQLHDNIKSVVLQTYGEDQNYLHLTFKNNDFLFVEKLTTTDARRLKRFLDKTSQGSIRPARSDERCGEPSTSAQELNGSGSSCETNSECFESPKESEMCMFRELSLLPSSSTFLHNVGLLENQFIKRKRFFSDLAKNEKQSNLKDSIRDFEANLVVCISNEKGKERNVREVDISKPGFGFPFETNYPEDSGVDVRDLNDLITKLFSPVLLETHCIENGLEWHEYMKTYLLYPEKLWQGLPNVGNTCYINVVLQSLCSIPLFINDLFNQGFPWIKAPKDDFNMLLMQLLVLKDIYNARFRQKLLIGITKALPIFGEIFAVDRQNDAHEFLSLCLVQLKETFQRVTMMWQSENDSGDFYLLKDIFADYATINKMPVCPVTNNFEFELLSSIFCKACGLTLFKGEPSRYLSINIPQGGKDMSIQSTLDLFFSAEELEHRCEKCLYNKSVSFHRFGRLPRVIIVHLKRYHFNESWVMKKDERPILVSKYLRLSCHCSKSTKPPPPLRPGEHVKNLDLLKPLEVLGSEILKLPFNSVRTSRSKGFETINITSNRESEAQSGKRVSEVLSGKVQQENSGKGDTAHIVGSELTKETEKLKKHEEEHRPSDLDSGSIREAQKYQQAEKCNEGRSDKQISLEALTQSRPKPISQEQTENLGKTTLSHTQDSSQSSQSSSDSSKSSRCSDDLDKKAKPTRKVDPTKLNKKEDNVYRLVNIINHIGNSPNGGHYINDAFDFKRQSWFTYSDLHVTRTQEDFVYRGRSSTGYVFFYMHNDIFEELLAKETQSTSTSKG
Regarding B2, the binding entry with Flag-tagged β-catenin and with Flag-tagged IκBα was “binds” in each case.

B3: IKKβ (enzyme, UniProt O88351 1-757)
chain: MSWSPSLPTQTCGAWEMKERLGTGGFGNVIRWHNQATGEQIAIKQCRQELSPKNRNRWCLEIQIMRRLNHPNVVAARDVPEGMQNLAPNDLPLLAMEYCQGGDLRRYLNQFENCCGLREGAVLTLLSDIASALRYLHENRIIHRDLKPENIVLQQGEKRLIHKIIDLGYAKELDQGSLCTSFVGTLQYLAPELLEQQKYTVTVDYWSFGTLAFECITGFRPFLPNWQPVQWHSKVRQKSEVDIVVSEDLNGAVKFSSSLPFPNNLNSVLAERLEKWLQLMLMWHPRQRGTDPQYGPNGCFRALDDILNLKLVHVLNMVTGTVHTYPVTEDESLQSLKTRIQENTGILETDQELLQKAGLVLLPDKPATQCISDSKTNEGLTLDMDLVFLLDNSKINYETQITPRPPPESVSCILQEPKRNLSFFQLRKVWGQVWHSIQTLKEDCNRLQQGQRAAMMSLLRNNSCLSKMKNAMASTAQQLKAKLDFFKTSIQIDLEKYKEQTEFGITSDKLLLAWREMEQAVEQCGRENDVKHLVERMMALQTDIVDLQRSPMGRKQGGTLDDLEEQARELYRKLREKPRDQRTEGDSQEMVRLLLQAIQSFEKKVRVIYTQLSKTVVCKQKALELLPKVEEVVSLMNEDERTVVRLQEKRQKELWNLLKIACSKVRGPVSGSPDSMNVSRLSHPGQLMSQPSSACDSLPESDKKSEELVAEAHALCSRLESALQDTVKEQDRSFTTLDWSWLQMEDEERCSLEQACD
Turning to B3, in experiment [1], the binding entry is reported as “no binding”.
